# Values joined by “and” are separate entries in the source; they are usually repeats but may differ in a detail not shown here. Equal values may be shown once. Inconclusive results, whose numbers are uncertain, are shown with a selection of clear calls. For some assays here: Potencies beside an inconclusive call are fits to weak or partial responses and may not hold up. Active and inactive are the calls of the source. Rule for the calls: active = hit-call score of the fitted dose curve at least 0.9, where 1 is the maximum; inconclusive = response in the unintended direction; inactive = score below 0.9.
# By UniProt entry, the sequences of proteins in these tests, tags left out. Where a name states a change or a piece, a line headed by the entry shows the natural chain unless it says otherwise.
# UniProt Q96RI1: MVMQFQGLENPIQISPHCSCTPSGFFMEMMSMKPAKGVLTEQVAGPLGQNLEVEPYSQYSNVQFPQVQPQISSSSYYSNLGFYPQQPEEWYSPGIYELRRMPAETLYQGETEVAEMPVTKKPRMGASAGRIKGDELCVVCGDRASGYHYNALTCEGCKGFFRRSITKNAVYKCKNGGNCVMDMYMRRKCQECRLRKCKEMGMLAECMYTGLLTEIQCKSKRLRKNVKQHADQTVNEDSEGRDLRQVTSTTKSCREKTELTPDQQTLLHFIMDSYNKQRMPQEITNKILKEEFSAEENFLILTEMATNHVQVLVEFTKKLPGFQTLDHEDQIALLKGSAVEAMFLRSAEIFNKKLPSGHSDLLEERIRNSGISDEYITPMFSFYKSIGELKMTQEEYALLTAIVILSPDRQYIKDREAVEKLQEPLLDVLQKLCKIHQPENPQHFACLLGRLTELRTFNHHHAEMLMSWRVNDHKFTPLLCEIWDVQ
# UniProt Q9UNQ0: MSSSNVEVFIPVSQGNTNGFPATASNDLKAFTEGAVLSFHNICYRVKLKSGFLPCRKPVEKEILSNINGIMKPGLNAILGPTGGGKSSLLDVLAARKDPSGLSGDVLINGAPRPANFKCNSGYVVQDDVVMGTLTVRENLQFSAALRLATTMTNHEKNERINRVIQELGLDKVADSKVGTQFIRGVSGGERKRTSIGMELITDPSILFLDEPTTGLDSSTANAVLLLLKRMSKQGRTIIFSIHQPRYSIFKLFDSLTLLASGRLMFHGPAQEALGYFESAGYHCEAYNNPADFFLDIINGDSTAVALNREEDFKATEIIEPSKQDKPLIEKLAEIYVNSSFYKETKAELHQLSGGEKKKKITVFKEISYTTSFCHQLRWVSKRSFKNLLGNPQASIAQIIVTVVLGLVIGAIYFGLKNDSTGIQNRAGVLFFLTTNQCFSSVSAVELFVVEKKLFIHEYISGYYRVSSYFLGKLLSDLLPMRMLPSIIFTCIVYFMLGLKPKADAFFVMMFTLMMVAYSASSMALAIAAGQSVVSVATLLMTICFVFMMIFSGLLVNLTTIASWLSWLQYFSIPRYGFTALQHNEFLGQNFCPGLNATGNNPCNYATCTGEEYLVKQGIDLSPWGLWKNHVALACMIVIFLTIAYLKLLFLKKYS
# UniProt P10275: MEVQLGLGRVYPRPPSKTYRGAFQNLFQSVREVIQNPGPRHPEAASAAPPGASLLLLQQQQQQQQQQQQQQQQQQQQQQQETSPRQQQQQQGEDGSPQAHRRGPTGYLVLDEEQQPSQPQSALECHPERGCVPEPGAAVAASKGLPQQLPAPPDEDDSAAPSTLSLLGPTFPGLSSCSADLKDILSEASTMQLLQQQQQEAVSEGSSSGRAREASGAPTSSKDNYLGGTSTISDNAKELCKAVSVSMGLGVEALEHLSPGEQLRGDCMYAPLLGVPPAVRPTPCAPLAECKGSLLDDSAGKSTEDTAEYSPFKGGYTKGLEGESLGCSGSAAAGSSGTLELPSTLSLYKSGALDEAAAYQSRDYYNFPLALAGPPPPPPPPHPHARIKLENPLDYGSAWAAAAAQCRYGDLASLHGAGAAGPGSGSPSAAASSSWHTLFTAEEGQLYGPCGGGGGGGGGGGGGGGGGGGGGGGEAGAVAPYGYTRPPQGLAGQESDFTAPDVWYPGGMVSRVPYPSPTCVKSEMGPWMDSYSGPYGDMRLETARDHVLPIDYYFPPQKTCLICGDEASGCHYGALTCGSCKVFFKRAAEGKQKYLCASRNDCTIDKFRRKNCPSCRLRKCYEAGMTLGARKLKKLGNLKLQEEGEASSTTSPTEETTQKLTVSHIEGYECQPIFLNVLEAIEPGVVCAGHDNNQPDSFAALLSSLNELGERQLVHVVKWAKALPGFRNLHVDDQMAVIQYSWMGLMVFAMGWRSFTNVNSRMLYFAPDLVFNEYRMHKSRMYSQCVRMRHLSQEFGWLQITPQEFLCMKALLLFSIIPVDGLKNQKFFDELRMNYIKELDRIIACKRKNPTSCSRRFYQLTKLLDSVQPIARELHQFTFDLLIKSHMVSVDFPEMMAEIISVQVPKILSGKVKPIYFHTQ
# How the values were obtained:
# [1] = system: turtle Androgen Receptor (AR), gene 101947425; assay: ATG_trAR_XSP2: Attagene TRANS-FACTORIAL Multi-Species (XSP2) HepG2 Assay for turtle Androgen Receptor (AR) (AID 2283815);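 for AC50: reporter mRNA from a Gal4 chimera of turtle AR measured by RT-PCR; potency for gain of reporter signal meaning activation above DMSO baseline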
# How it was run: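 Reporter transcripts were quantified via RT-PCR and capillary electrophoresis and fitted upward against DMSO. Transiently transfected human HepG2 cells carrying NR-Gal4 chimeras were exposed 24 h, with 3 nM 6-alpha-fluorotestosterone plus 1.5 nM norgestrel added.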
# [2] = target: Bile acid receptor (Homo sapiens) (UniProt Q96RI1); assay: OT_FXR_FXRSRC1_0480: Odyssey Thera (OT) 8-hour HEK293T Protein-Complementation Assay for Farnesoid X receptor/SRC-1 Co-activator (AID 2283383)
# How it was run: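 Binding of FXR to coactivator SRC-1 was read as fluorescence from a reconstituted split reporter in HEK293T cells, 8 h after chemical addition. Only increases in signal versus DMSO were fit.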
# [3] = target: Bile acid receptor (Homo sapiens) (UniProt Q96RI1); assay: OT_FXR_FXRSRC1_1440: Odyssey Thera (OT) 24-hour HEK293T Protein-Complementation Assay for Farnesoid X receptor/SRC-1 Co-activator (AID 2283384)
# How it was run: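 Protein-fragment complementation: FXR and SRC-1 fused to reporter fragments that reassemble on interaction, read by fluorescence intensity. Human HEK293T cells measured 24 h post-dose; positive-direction fit versus DMSO.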
# [4] = Tanguay_ZF_120hpf_AXIS_legacy: (Legacy) Oregon State University Tanguay Lab 120 Hour Post-fertilization zebrafish Assay for Body Axis Malformation (AID 2283635);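 for AC50: potency for an increased fraction of larvae scored with body axis malformation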
# How it was run: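 Each dechorionated embryo was exposed alone from 6 hpf, with DMSO at 0.64% (vol/vol) and trimethyltin chloride 5 uM as positive control. Axis malformation was recorded at 120 hpf unless the embryo had died.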
# [5] = Tanguay_ZF_120hpf_CIRC_legacy: (Legacy) Oregon State University Tanguay Lab 120 Hour Post-fertilization zebrafish Assay for Circulatory Malformation (AID 2283651)
# How it was run: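 Binary circulatory malformation call at 120 hpf by brightfield imaging of zebrafish larvae; chorion removed at 4 hpf, static exposure from 6 hpf in sealed dark plates at 28C, final DMSO 0.64%; non-mortality endpoints skipped if embryo died.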
# [6] = Tanguay_ZF_120hpf_NC_legacy: (Legacy) Oregon State University Tanguay Lab 120 Hour Post-fertilization zebrafish Assay for Notochord and Tail Malformation (AID 2283656)
# How it was run: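 Binary scoring of notochord distortion by brightfield microscopy; embryos dying were not scored. Wild-type Tropical 5D embryos, chorion removed, exposed singly and statically from 6 to 120 hpf, 28C, sealed, 0.64% DMSO.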
# [7] = read-out: Broad substrate specificity ATP-binding cassette transporter ABCG2 (Homo sapiens) (UniProt Q9UNQ0); assay: CLD_ABCG2_6hr: CellzDirect (CLD) Gene Expression Assay for ABC Transporter (ABCG2) at 6 hours (AID 2283660)
# How it was run: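 ABCG2 mRNA induction measured by qNPA chemiluminescence in human primary hepatocyte cultures, 6 h post-dose. Chemicals tested at several concentrations against a 0.2% DMSO vehicle; positive-direction fit relative to DMSO.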
# [8] = read-out: xenobiotic metabolism (CYP1A1), CYP1A1 (gene 1543); assay: CLD_CYP1A1_48hr: CellzDirect (CLD) Gene Expression Assay for xenobiotic metabolism (CYP1A1) at 48 hours (AID 2283705)
# How it was run: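 CYP1A1 transcript measured by quantitative nuclease protection (chemiluminescent) 48 h after two daily treatments of human hepatocyte cultures, versus 0.2% DMSO. Morphology-based cytotoxicity flags accompany data; two donor preparations used.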
# [9] = read-out: sulfotransferase (SULT2A), SULT2A1 (gene 6822); assay: CLD_SULT2A_48hr: CellzDirect (CLD) Gene Expression Assay for sulfotransferase (SULT2A) at 48 hours (AID 2283710);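 note: hits raise SULT2A1 transcript above the 0.2% DMSO vehicle baseline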
# How it was run: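 SULT2A1 transcript measured by qNPA chemiluminescence in human primary hepatocyte cultures after 48 h, with fresh dosing solutions on two consecutive days; gain-of-signal fitting against 0.2% DMSO vehicle; cytotoxicity annotated from phase-contrast morphology.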
# [10] = Tanguay_ZF_120hpf_SOMI_legacy: (Legacy) Oregon State University Tanguay Lab 120 Hour Post-fertilization zebrafish Assay for Somite Malformation (AID 2283647)
# How it was run: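 Somitogenesis defects are recorded as binary calls in whole larvae at 120 hpf after continuous static chemical exposure starting at 6 hpf in dechorionated 5D embryos. DMSO serves as negative control and baseline.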
# [11] = Tanguay_ZF_120hpf_TRUN_legacy: (Legacy) Oregon State University Tanguay Lab 120 Hour Post-fertilization zebrafish Assay for Truncated Body (AID 2283655)
# How it was run: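 Single dechorionated zebrafish embryos received test chemical from 6 hpf in 0.64% DMSO, kept at 28C. At 120 hpf, brightfield inspection noted any truncated body.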
# AR (gene 367) = AR (gene 367) (UniProt P10275); assay: ACEA_AR_agonist_80hr: ACEA Biosciences xCELLigence Real-Time Cell Analysis on Androgen Receptor Agonism for Proliferation (AID 2283783);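 note: hits increase impedance growth signal above DMSO baseline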
# How it was run: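 Eight concentrations, 1:4 serial dilution from a 100 uM final top, in biological duplicate. Impedance-based real-time growth of 22Rv1 cells after overnight baseline, recorded hourly and read at 80 hours. Controls: testosterone, MG132, assay media.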
# [12] = target: Nucleoli Translocation, AR (gene 367) (UniProt P10275); assay: UPITT_HCI_U2OS_AR_TIF2_Nucleoli_Agonist: University of Pittsburgh U2OS Androgen Receptor-Transcriptional Intermediary Factor 2 (AR-TIF2) Agonism High Content Imaging Assay for Nucleoli Translocation (AID 2283998)
# How it was run: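 High-content images quantify nucleolar accumulation of RFP-fused AR in cells also expressing GFP-TIF2; the endpoint is fitted as signal gain versus DMSO controls across final concentrations of 0.195 to 50 uM.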
# [13] = CLD_ACTIN_48hr: CellzDirect (CLD) Gene Expression Assay for Baseline Control (Actin) at 48 hours (AID 2283702)
# How it was run: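 Background-control actin mRNA read by qNPA chemiluminescence at 48 h. Human hepatocyte cultures from two donors received fresh multi-concentration chemical doses daily for two days; 0.2% DMSO served as vehicle baseline.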
# [14] = ACEA_AR_agonist_AUC_viability: ACEA Biosciences xCELLigence Real-Time Cell Analysis on Androgen Receptor Agonism for Viability (AID 2283775);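 for AC50: viability read 80 hours after compound addition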
# How it was run: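 22Rv1 cells; impedance growth kinetics; 8-pt 1:4 dilutions from 100 uM top final, ≤0.5% DMSO; n = 2; 80 h read; AUC viability, loss-of-signal vs DMSO.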
# [15] = read-out: ABC Transporter (ABCB1), ABCB1 (gene 5243); assay: CLD_ABCB1_6hr: CellzDirect (CLD) Gene Expression Assay for ABC Transporter (ABCB1) at 6 hours (AID 2283659);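 note: hits raise ABCB1 transcript above the DMSO vehicle baseline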
# How it was run: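 ABCB1 transcript measured by quantitative nuclease protection assay, chemiluminescent read-out, 6 h after dosing human hepatocyte cultures (0.2% DMSO vehicle, daily redosing). Activity fitted as increase over DMSO baseline; cytotoxicity flagged by phase-contrast morphology.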
# [16] = read-out: xenobiotic metabolism (CYP2C9), CYP2C9 (gene 1559); assay: CLD_CYP2C9_6hr: CellzDirect (CLD) Gene Expression Assay for xenobiotic metabolism (CYP2C9) at 6 hours (AID 2283664)
# How it was run: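 Readout is qNPA chemiluminescence of CYP2C9 mRNA, taken 6 h after dosing of cultured human liver primary cells at several concentrations. Activity is the increase over 0.2% DMSO baseline. Morphology-based cytotoxicity flagged yes/no.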
# [17] = read-out: ABC Transporter (ABCB1), ABCB1 (gene 5243); assay: CLD_ABCB1_24hr: CellzDirect (CLD) Gene Expression Assay for ABC Transporter (ABCB1) at 24 hours (AID 2283684)
# How it was run: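 ABCB1 mRNA induction versus 0.2% DMSO vehicle was read by qNPA chemiluminescence at 24 h. Cultured human hepatocytes from two donor preparations received daily fresh dosing, and phase-contrast cytotoxicity calls were annotated alongside the data.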
# [18] = read-out: ABC Transporter (ABCB1), ABCB1 (gene 5243); assay: CLD_ABCB1_48hr: CellzDirect (CLD) Gene Expression Assay for ABC Transporter (ABCB1) at 48 hours (AID 2283695);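 for AC50: potency for induction meaning increase of mRNA over DMSO vehicle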
# How it was run: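 ABCB1 mRNA was measured by quantitative nuclease protection assay (chemiluminescence) 48 h after dosing. Human hepatocyte cultures from two separate donors received fresh dosing solutions daily for two days, with 0.2% DMSO as vehicle. Positive-direction fit against DMSO.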
# [19] = target: Androgen receptor (Homo sapiens) (UniProt P10275); assay: ATG_AR_TRANS: Attagene TRANS-FACTORIAL HepG2 Assay for human Androgen Receptor (AR) (AID 2282973); conditions: HepG2 Attagene TRANS-FACTORIAL AR reporter transcription
# How it was run: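 Chimeric nuclear receptor–Gal4 activity was assessed in human HepG2 hepatocytes after 24 h chemical dosing. Induced reporter mRNA was detected via labelled RT-PCR fragments on capillary electrophoresis, and gain of signal was analysed against DMSO.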
structure (smiles),measurement,setting,value
CC(C)C1CCC(Cc2ccc(Cl)cc2)C1(O)Cn1cncn1 (configuration not stated),AC50,[1],inconclusive: 3.57 µM and inconclusive: 8.31 µM
O=c1ccc(=O)[nH][nH]1,outcome,[2],inactive
same,AC50,[3],inconclusive: 50 µM
same,AC50,[4],active: 51.7 µM
same,AC50,[5],inconclusive: 1.49 µM
same,AC50,[6],active: 41.6 µM
same,outcome,[7],inactive
same,AC50,[8],inconclusive: 2 µM
same,AC50,[9],inconclusive: 20 µM
CC(C)(OOC(C)(C)c1ccccc1)c1ccccc1,outcome,[10],inactive
same,outcome,[5],inactive
same,outcome,[11],inactive
same,outcome,AR (gene 367),inactive
same,AC50,[12],inconclusive: 50 µM
COCC(C)N(C(=O)CCl)c1c(C)csc1C (configuration not stated),AC50,[3],inconclusive: 50 µM
same,AC50,[10],active: 30.4 µM
same,AC50,[5],active: 24.5 µM
same,AC50,[11],active: 30.8 µM
same,AC50,[13],inconclusive: 7.48 µM
same,AC50,[9],inconclusive: 36.4 µM
same,outcome,[14],inactive
C#CCC1=C(C)C(OC(=O)C2C(C=C(C)C)C2(C)C)CC1=O (configuration not stated),AC50,[2],active: 33 µM
same,AC50,[3],active: 49.8 µM
same,AC50,[4],inconclusive: 201 µM
same,AC50,[11],inconclusive: 201 µM
same,AC50,[6],inconclusive: 0.72 µM
same,outcome,[15],inactive
same,AC50,[1],inconclusive: 14.1 µM
CCc1cccc(C)c1N(C(=O)CCl)C(C)COC (configuration not stated),outcome,[5],inactive
same,outcome,[7],inactive
same,AC50,[16],inconclusive: 4.03 µM
same,outcome,[17],inactive
same,outcome,[1],inactive
C1=Cc2cccc3cccc1c23,AC50,[14],inconclusive: 0.135 µM
COc1cc(OC)nc(NC(=O)NS(=O)(=O)c2cc(NC=O)ccc2C(=O)N(C)C)n1,outcome,[16],inactive
same,AC50,[13],inconclusive: 20 µM
O=Cc1ccco1,outcome,[11],inactive
Nc1ccc(Oc2ccc(N)cc2)cc1,outcome,[4],inactive
same,AC50,[11],inconclusive: 11.7 µM
same,outcome,[6],inactive
same,outcome,[14],inactive
Cc1cccc(N)c1N,AC50,[2],active: 42.8 µM
same,AC50,[3],active: 49.3 µM
same,outcome,[11],inactive
same,AC50,[14],inconclusive: 0.0852 µM
CCOP(=S)(OCC)OC(Cl)C(Cl)(Cl)Cl (configuration not stated),AC50,[5],inconclusive: 202 µM
same,AC50,[7],inconclusive: 20 µM
same,AC50,[13],inconclusive: 7.9 µM
same,outcome,[8],inactive
same,AC50,[9],inconclusive: 20 µM
same,AC50,[14],inconclusive: 85.5 µM
c1ccc(N=Nc2ccccc2)cc1,AC50,[10],inconclusive: 10.5 µM
same,AC50,[5],inconclusive: 2.07 µM
same,AC50,[11],inconclusive: 202 µM
same,AC50,[14],inconclusive: 10.9 µM
CC1=NNC(=O)N(/N=C/c2cccnc2)C1,outcome,[15],inactive
same,AC50,[16],inconclusive: 0.0034 µM
same,AC50,[9],inconclusive: 0.00782 µM
N#Cc1c(Cl)cccc1Cl,AC50,[7],inconclusive: 20 µM
same,outcome,[16],inactive
same,AC50,[18],inconclusive: 20 µM
same,outcome,[13],inactive
Cc1cc(N=Nc2ccccc2C)ccc1N,AC50,[3],inconclusive: 86.6 µM
same,AC50,[10],inconclusive: 28.7 µM
same,outcome,[6],inactive
same,AC50,AR (gene 367),inconclusive: 50 µM
same,AC50,[12],active: 77.9 µM
O=C(NC(=O)c1c(F)cccc1F)Nc1ccc(OC(F)(F)C(F)OC(F)(F)F)c(Cl)c1 (configuration not stated),AC50,[4],inconclusive: 0.783 µM
same,AC50,[7],inconclusive: 0.000915 µM
same,AC50,[18],inconclusive: 20 µM
same,AC50,[8],inconclusive: 20 µM
same,outcome,[9],inactive
N#CSCSC#N,outcome,[19],inactive
same,AC50,[3],inconclusive: 22.5 µM
same,outcome,[15],inactive
same,outcome,[16],inactive
same,outcome,[18],inactive
same,outcome,[9],inactive
same,AC50,AR (gene 367),inconclusive: 50 µM
COC(=O)Nc1nc2ccccc2[nH]1,AC50,[19],inconclusive: 100 µM
same,outcome,AR (gene 367),inactive
same,outcome,[12],inactive
Cc1cc(O)ccc1Cl,AC50,[10],inconclusive: 4.54 µM
same,outcome,[6],inactive
Cc1cccc([N+](=O)[O-])c1,AC50,[5],inconclusive: 44.7 µM
COCC(=O)N(c1c(C)cccc1C)C(C)C(=O)OC (configuration not stated),AC50,[6],inconclusive: 41.7 µM
same,outcome,[15],inactive
same,AC50,[7],inconclusive: 0.179 µM
same,outcome,[16],inactive
same,outcome,[17],inactive
same,AC50,[13],inconclusive: 20 µM
same,AC50,[9],active: 20 µM

# 3 entries picked at random from those above, as already listed:
structure (smiles),measurement,setting,value
COCC(=O)N(c1c(C)cccc1C)C(C)C(=O)OC (configuration not stated),outcome,[16],inactive
O=C(NC(=O)c1c(F)cccc1F)Nc1ccc(OC(F)(F)C(F)OC(F)(F)F)c(Cl)c1 (configuration not stated),AC50,[18],inconclusive: 20 µM
Cc1cc(O)ccc1Cl,outcome,[6],inactive
